The other results are listed elsewhere or left out.

The experiment addresses T1, OsSMF1 (Oryza sativa, UniProt Q6ZLB0 1-436).
T1 sequence: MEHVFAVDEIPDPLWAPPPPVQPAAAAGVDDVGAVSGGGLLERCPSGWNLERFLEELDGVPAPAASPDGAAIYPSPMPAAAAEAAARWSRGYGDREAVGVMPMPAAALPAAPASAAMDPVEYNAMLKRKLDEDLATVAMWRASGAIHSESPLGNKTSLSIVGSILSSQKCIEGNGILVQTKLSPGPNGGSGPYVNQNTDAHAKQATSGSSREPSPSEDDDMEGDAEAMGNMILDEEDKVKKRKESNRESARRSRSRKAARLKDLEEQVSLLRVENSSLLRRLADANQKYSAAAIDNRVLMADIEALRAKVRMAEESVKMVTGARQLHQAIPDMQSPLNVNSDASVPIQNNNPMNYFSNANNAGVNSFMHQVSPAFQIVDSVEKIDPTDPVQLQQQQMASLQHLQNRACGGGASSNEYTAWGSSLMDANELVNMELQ
Nature of the experiment: protein-binding microarray (RPBM); PBS, 2% BSA, 51.3 ng/ul salmon testes DNA, 50 uM zinc acetate, 200 nM TF, 25 C, 1 h; high values mean tight binding. Conditions: protein: recombinant; tags: N-terminal polyhistidine and DsRed monomer fusion (pET32a); chain copies: 2; label: CyDye5-dUTP incorporated in the synthesized complementary strand; 3' TTTTT single-stranded linker to array surface; dsDNA, one strand shown. The procedure, abridged: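 In PBS with 2% BSA, salmon testes DNA and 50 µM zinc acetate, 200 nM protein was incubated on a custom Agilent array at 25 °C for 1 h and then washed off. The array had been made double-stranded by primer extension with Cy5-dUTP and blocked with 2% BSA. The proteins were transcription factors fused N-terminally to polyhistidine and DsRed, expressed in E. coli BL21-CodonPlus and purified on Ni–NTA. The binding signal is per-feature fluorescence intensity (arbitrary units) from an Axon 4000B scanner.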
“CGCCCATTCTACACCGTCTCCATCCATCTCATCTCGTCGTCGGAGTCACCTAGTGCAG”: the binding signal is 3670 fluorescence intensity (a.u.).

In the case of “TGAGCGACTGTGCGGCGAGCACGCTGATGTGGCCGTCCTGCGGAGTCACCTAGTGCAG”, the binding signal is 3490 fluorescence intensity (a.u.).

In the case of “GGTCCACTCCGCCGCCGGCGGAGGCGGCGGCGGCGAAGGCCGGAGTCACCTAGTGCAG”, the binding signal was 32000 fluorescence intensity (a.u.).

For “TCTCCACTTCAGAGACGGTCCCACCTGTCATCCGCTCATACGGAGTCACCTAGTGCAG”, the binding signal was 4680 fluorescence intensity (a.u.).

In the case of “TTAAGATACATTTCAATTATTAATGAATGACGCATATGAACGGAGTCACCTAGTGCAG”, the binding signal is 3710 fluorescence intensity (a.u.).

In the case of “GGCGTCGTCCCCGTCCACAGCCACGCCGCCGAGCCGTGCTCGGAGTCACCTAGTGCAG”, the binding signal was 32600 fluorescence intensity (a.u.).

Take “CCCCACTTCTTGGGTCCTTCCCCATCGTCTTCCACGTCGACGGAGTCACCTAGTGCAG”: the binding signal is 4970 fluorescence intensity (a.u.).

As for “CAGCCGCGCCGCTCGCTGCCTCCGTTTACAGCCGTGACGCCGGAGTCACCTAGTGCAG”, the binding signal is 5170 fluorescence intensity (a.u.).

Regarding “CCTCCCACGCCGCCACCCGCGCCCTGATGTCCGCGTCCGTCGGAGTCACCTAGTGCAG”, the binding signal is 4470 fluorescence intensity (a.u.).

“TACTAATCTAGTCAAAAGCCAGCATGATGCTGTCAAATTTCGGAGTCACCTAGTGCAG”: the binding signal was 3410 fluorescence intensity (a.u.).

“ACCCGGAGTATAATCAAGTGAATTTTCATCCACGTGCACACGGAGTCACCTAGTGCAG”: the binding signal is 4910 fluorescence intensity (a.u.).

In the case of “TCGGTCGCACCTACAACGAGGTGGCCAGGTCACCTACTGCCGGAGTCACCTAGTGCAG”, the binding signal is 3330 fluorescence intensity (a.u.).

As for “CGATGATTGTGCTAGTATACATGTGTTGACGATGTATTGTCGGAGTCACCTAGTGCAG”, the binding signal was 4020 fluorescence intensity (a.u.).

Turning to “CACGCCAAGCCTTGAGTGTCGTGGCCTTGAGCTGGGGATGCGGAGTCACCTAGTGCAG”, the binding signal was 20800 fluorescence intensity (a.u.).

On to “TATAAACGGGGTAGCGCATGAGACCTACAAGTGGATGGATCGGAGTCACCTAGTGCAG”, for which the binding signal was 3220 fluorescence intensity (a.u.).

“AGTACCATCGCCTGTTCGTAGAATTCTTTGCCAGCACAAGCGGAGTCACCTAGTGCAG”: the binding signal was 3270 fluorescence intensity (a.u.).

As for “AAAATTATGTTGTCATTTTAATATATTTGAATAATACATTCGGAGTCACCTAGTGCAG”, the binding signal is 3560 fluorescence intensity (a.u.).

Take “CACGCCGCCGCCCGTCGCGAGCTCCACGTCGAGCAGCAGCCGGAGTCACCTAGTGCAG”: the binding signal is 4920 fluorescence intensity (a.u.).

Regarding “CATAGACACATGAGGATCCACGTGTTATAAATACAGTGTGCGGAGTCACCTAGTGCAG”, the binding signal is 10300 fluorescence intensity (a.u.).

For the sequence “TATTGGAGGTAAGCCATACATTCTCATCCTGCTATCTAACCGGAGTCACCTAGTGCAG”, the binding signal was 3330 fluorescence intensity (a.u.).

As to “GCGGGTGCCATCGTGGGCTGATCTGGTGGCAGCAAGGGCTCGGAGTCACCTAGTGCAG”, the binding signal is 3310 fluorescence intensity (a.u.).

Take “TCTGCAGCACCCGACGACGCGCATCCCTCTCACGACCACGCGGAGTCACCTAGTGCAG”: the binding signal is 4090 fluorescence intensity (a.u.).

For the sequence “TATATTTCATTAATATAAATAAAATTAAAATGTTACTTAACGGAGTCACCTAGTGCAG”, the binding signal is 25600 fluorescence intensity (a.u.).

As for “ACAAAGCTTAAGCTCAGTGTCAGTGTCACAGTGTCAGACACGGAGTCACCTAGTGCAG”, the binding signal is 3520 fluorescence intensity (a.u.).

In the case of “ATTCGTAGTAATAAGATGTGCCACATCCGCTACGTTGTTTCGGAGTCACCTAGTGCAG”, the binding signal is 3940 fluorescence intensity (a.u.).

For the sequence “CTGACGAATATACAGGAGGGAACCGAATGGCGCGCAATTGCGGAGTCACCTAGTGCAG”, the binding signal was 21700 fluorescence intensity (a.u.).

Turning to “AGGTAAGTGTGTTGTGTGTGTGAGGATGCAGCATGCTTACCGGAGTCACCTAGTGCAG”, the binding signal was 4190 fluorescence intensity (a.u.).

“TTCCCGTCCGAGCATTTGGCACGTATTAGTGACACTAACTCGGAGTCACCTAGTGCAG”: the binding signal is 4130 fluorescence intensity (a.u.).

Consider “AGGATTCAATTTGGACTTTGGTGGAGGGGAGGGGCTGCTGCGGAGTCACCTAGTGCAG”, for which the binding signal was 8930 fluorescence intensity (a.u.).

As for “CACAGGGCCGTGCACCGCCTGAGTCATGCCACACAGTGCCCGGAGTCACCTAGTGCAG”, the binding signal is 7290 fluorescence intensity (a.u.).

For “AGCCGTCTCAGCCCCGGCGCCGTCATCTTCCGTCTTAGCCCGGAGTCACCTAGTGCAG”, the binding signal was 4410 fluorescence intensity (a.u.).

In the case of “ATATGCACGCACCGTGCAGTAACAGTAGTAAGTAGAGGGACGGAGTCACCTAGTGCAG”, the binding signal was 38200 fluorescence intensity (a.u.).

For the sequence “AGCTTCGGAGGCTGTACACGTAATGTGGTCGCTTGTTTGTCGGAGTCACCTAGTGCAG”, the binding signal was 9220 fluorescence intensity (a.u.).

With “GTGTTTGTGACGACACGACACCACACGAGAGGAGAGAGAGCGGAGTCACCTAGTGCAG”, the binding signal is 4330 fluorescence intensity (a.u.).

Consider “CGAAGCATAGGCACACCGCACACGTGTACACCGGACGTGCCGGAGTCACCTAGTGCAG”, for which the binding signal is 16900 fluorescence intensity (a.u.).

Regarding “TTTGATGACCGGGCTACCACGTCAGCATACCTAAACCAAACGGAGTCACCTAGTGCAG”, the binding signal is 13800 fluorescence intensity (a.u.).

Consider “AATACCTTACCTGTGTACAAAGTGTACAACCCAAGCCCACCGGAGTCACCTAGTGCAG”, for which the binding signal was 3490 fluorescence intensity (a.u.).

Consider “GATGGGCTTCCTCAACGGCCCAAGTCACCCAGATGGGCCTCGGAGTCACCTAGTGCAG”, for which the binding signal was 3900 fluorescence intensity (a.u.).

With “TTCTCCTTCTCCCACGTCCTCTCTCTCCCTGACCCTGAGCCGGAGTCACCTAGTGCAG”, the binding signal is 7180 fluorescence intensity (a.u.).

With “TACCTCATCGGCGATCGGCCTTGCCCGCCTTGTCCAACCTCGGAGTCACCTAGTGCAG”, the binding signal was 3520 fluorescence intensity (a.u.).

As to “GATGCATGATGTCTATAATTATACCACATGCGAGTAAGCACGGAGTCACCTAGTGCAG”, the binding signal is 3770 fluorescence intensity (a.u.).

Consider “GGTCCATTTCCATATAGAAATATAGATGAGATGTACATATCGGAGTCACCTAGTGCAG”, for which the binding signal was 21700 fluorescence intensity (a.u.).

The values above are taken from PMC7819943, “Rice protein-binding microarrays: a tool to detect cis-acting elements near promoter regions in rice”.
